PMC7256045
Like-named read-outs stand apart in the source and are kept apart here. Results are given in words; binding and its absence hold for the method and conditions named. In cells and extracts the contact can be indirect. A result given as binding can be weak or reduced; the word gives no strength.

Protein sequences, listed by entry. Tags and fused reporters are not part of them. Lines headed by an entry give the natural chain unless they say otherwise; changes in a name come on top.
UniProt O15382: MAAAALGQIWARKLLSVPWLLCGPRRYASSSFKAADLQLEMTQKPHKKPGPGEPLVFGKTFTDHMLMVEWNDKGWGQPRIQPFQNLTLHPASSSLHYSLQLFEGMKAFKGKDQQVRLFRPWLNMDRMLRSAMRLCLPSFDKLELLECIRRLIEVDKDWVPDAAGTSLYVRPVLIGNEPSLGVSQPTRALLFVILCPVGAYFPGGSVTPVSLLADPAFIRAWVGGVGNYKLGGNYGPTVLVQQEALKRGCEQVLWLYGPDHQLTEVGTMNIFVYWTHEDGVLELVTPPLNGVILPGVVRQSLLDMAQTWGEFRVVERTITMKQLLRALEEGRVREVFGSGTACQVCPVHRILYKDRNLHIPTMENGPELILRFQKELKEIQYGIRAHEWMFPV
UniProt Q92793: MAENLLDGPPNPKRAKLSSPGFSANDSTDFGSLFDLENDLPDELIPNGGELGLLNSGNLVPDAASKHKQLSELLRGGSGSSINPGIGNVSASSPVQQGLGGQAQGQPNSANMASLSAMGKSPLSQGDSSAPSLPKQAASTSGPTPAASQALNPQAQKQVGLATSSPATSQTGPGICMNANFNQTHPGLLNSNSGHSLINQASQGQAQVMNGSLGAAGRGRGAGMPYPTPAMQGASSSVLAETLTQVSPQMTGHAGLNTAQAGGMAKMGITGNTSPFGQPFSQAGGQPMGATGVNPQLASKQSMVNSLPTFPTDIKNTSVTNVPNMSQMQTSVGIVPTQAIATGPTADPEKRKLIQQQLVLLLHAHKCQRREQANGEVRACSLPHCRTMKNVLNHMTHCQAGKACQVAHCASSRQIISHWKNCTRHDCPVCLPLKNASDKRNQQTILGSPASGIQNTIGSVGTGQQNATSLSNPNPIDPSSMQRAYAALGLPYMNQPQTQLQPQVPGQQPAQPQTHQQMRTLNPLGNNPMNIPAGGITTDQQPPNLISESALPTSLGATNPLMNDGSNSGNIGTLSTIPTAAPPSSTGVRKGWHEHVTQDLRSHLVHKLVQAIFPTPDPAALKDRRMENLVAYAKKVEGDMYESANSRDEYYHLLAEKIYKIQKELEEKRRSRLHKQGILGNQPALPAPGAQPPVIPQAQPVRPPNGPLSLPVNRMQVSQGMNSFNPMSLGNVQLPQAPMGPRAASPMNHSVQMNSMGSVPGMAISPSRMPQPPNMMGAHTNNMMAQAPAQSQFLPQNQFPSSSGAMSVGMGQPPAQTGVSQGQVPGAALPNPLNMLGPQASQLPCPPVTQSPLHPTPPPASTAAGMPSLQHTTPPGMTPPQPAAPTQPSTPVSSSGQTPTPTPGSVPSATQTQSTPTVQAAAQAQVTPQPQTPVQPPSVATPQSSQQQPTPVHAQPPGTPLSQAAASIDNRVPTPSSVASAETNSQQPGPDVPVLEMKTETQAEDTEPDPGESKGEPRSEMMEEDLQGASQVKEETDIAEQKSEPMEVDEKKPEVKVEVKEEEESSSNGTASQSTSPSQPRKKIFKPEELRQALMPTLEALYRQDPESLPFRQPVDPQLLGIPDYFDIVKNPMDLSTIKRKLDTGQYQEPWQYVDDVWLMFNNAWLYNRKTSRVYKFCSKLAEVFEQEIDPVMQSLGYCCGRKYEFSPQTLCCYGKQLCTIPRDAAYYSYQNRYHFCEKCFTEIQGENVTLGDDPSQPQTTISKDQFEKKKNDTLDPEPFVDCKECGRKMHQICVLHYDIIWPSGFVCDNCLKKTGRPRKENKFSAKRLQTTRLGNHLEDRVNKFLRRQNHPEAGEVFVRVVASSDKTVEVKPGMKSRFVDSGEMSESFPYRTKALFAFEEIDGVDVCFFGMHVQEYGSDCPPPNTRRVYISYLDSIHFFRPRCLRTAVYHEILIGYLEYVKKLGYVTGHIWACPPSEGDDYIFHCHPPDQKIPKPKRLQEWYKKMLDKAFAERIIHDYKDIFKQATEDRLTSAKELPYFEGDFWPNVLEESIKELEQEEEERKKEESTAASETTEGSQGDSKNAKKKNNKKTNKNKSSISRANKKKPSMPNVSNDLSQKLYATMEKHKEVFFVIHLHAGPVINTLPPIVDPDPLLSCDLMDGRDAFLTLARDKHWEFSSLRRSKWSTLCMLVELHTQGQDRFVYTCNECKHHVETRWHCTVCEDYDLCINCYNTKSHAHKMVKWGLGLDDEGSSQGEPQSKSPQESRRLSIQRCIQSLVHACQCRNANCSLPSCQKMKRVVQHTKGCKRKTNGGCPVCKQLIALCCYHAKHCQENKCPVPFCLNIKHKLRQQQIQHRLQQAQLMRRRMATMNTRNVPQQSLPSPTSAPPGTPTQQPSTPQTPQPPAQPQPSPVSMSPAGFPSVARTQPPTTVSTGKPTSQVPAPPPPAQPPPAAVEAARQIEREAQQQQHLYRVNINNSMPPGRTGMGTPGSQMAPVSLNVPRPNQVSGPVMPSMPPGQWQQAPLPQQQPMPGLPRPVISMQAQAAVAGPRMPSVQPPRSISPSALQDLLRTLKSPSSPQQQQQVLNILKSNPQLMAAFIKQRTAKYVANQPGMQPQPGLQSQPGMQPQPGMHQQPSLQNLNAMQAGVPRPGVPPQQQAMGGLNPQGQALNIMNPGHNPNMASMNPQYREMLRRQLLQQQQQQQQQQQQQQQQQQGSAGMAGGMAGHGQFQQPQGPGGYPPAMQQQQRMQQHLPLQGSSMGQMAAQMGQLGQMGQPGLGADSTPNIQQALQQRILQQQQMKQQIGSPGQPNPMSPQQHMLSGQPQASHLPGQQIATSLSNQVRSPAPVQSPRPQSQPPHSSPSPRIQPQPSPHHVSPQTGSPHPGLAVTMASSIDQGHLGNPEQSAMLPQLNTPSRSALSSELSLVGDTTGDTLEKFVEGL

B1: SIRT4 (endogenous) (enzyme, UniProt Q9Y6E7 29-314)
chain: IGLFVPASPPLDPEKVKELQRFITLSKRLLVMTGAGISTESGIPDYRSEKVGLYARTDRRPIQHGDFVRSAPIRQRYWARNFVGWPQFSSHQPNPAHWALSTWEKLGKLYWLVTQNVDALHTKAGSRRLTELHGCMDRVLCLDCGEQTPRGVLQERFQVLNPTWSAEAHGLAPDGDVFLSEEQVRSFQVPTCVQCGGHLKPDVVFFGDTVNPDKVDFVHKRVKEADSLLVVGSSLQVYSGYRFILTAWEKKLPIAILNIGPTRSDDLACLKLNSRCGELLPLIDPC

Tests used:
[1] = target: His-BCAT2 (branched-chain amino acid transaminase 2) (human) (UniProt O15382); test: pull-down; His-BCAT2 purified on Ni-NTA agarose beads, incubated with cell lysate overnight at 4 °C; beads washed three times with 0.3% NP-40 buffer; western blot; non-induced E. coli as control; only the target purified
[2] = target: His-BCAT2 (branched-chain amino acid transaminase 2) (human) (UniProt O15382); test: as above; remark: listed apart in the source

binding [1]	binding [2]	Molecule
binds	–	cAMP-responsive element-binding (CREB)-binding protein (CBP) (from UniProt Q92793 1-2442)
–	binds	B1
